Data taken from doi:10.1101/830802.
These are yes or no findings as the source states them, for the method shown. In cells and extracts the contact can be indirect. Some binding calls cover weakened binding; strength is not graded here. For some of these results: Where a sequence is shown, tags or fusion partners need not be part of it.

T1: R857G Auxilin, endogenous, brain of homozygous R857G knockin mice (mouse (endogenous in brain)) (UniProt Q80TZ3)
T1 sequence: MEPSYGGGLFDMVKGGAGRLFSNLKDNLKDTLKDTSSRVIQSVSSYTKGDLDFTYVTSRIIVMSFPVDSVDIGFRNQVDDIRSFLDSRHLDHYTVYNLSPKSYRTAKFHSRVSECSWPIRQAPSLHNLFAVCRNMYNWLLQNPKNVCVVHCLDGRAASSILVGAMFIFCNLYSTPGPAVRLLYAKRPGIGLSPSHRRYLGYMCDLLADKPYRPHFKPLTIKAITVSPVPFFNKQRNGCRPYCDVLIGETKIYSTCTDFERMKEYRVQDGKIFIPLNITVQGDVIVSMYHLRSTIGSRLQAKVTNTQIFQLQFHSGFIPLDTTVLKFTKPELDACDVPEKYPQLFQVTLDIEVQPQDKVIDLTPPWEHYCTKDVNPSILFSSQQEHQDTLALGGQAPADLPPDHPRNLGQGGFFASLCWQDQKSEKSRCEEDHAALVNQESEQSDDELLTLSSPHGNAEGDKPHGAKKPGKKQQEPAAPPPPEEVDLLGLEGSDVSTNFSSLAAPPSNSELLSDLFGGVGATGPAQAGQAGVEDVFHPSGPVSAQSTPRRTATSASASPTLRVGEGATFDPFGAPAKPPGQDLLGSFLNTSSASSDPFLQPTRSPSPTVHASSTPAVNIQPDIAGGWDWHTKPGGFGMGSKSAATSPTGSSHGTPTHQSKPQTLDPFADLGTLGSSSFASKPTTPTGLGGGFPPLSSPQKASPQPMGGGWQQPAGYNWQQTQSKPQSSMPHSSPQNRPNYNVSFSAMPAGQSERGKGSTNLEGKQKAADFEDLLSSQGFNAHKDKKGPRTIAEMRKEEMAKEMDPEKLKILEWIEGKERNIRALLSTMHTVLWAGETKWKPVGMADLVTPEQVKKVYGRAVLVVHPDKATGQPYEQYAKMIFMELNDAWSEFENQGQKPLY

T2: Auxilin, endogenous, brain of WT mice (mouse (endogenous in brain)) (UniProt Q80TZ3)
T2 sequence: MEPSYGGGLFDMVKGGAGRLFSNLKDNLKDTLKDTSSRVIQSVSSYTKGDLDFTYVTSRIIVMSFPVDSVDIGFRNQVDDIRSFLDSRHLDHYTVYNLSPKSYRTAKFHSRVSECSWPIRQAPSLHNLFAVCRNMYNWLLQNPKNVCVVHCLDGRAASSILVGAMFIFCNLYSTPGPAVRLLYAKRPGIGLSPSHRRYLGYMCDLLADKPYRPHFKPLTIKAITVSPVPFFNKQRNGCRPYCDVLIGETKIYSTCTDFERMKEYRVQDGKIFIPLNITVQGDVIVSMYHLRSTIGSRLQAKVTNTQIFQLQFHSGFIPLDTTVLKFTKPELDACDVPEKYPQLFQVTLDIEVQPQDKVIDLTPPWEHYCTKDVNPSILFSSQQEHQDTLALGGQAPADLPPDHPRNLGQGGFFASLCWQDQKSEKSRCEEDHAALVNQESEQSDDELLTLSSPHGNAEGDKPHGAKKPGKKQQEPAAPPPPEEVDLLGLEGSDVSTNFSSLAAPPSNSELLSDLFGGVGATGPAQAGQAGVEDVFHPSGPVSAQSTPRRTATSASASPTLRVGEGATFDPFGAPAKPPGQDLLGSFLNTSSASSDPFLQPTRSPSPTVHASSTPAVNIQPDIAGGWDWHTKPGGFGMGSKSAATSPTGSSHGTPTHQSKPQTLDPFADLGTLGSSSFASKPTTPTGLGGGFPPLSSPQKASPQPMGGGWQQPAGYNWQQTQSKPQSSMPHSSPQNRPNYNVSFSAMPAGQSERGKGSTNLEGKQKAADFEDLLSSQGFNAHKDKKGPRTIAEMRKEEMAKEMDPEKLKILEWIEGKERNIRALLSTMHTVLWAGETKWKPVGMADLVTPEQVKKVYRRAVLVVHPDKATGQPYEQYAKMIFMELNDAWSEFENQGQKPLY

T3: GFP-Auxilin (wild type, human) (human) (UniProt O75061)
T3 sequence: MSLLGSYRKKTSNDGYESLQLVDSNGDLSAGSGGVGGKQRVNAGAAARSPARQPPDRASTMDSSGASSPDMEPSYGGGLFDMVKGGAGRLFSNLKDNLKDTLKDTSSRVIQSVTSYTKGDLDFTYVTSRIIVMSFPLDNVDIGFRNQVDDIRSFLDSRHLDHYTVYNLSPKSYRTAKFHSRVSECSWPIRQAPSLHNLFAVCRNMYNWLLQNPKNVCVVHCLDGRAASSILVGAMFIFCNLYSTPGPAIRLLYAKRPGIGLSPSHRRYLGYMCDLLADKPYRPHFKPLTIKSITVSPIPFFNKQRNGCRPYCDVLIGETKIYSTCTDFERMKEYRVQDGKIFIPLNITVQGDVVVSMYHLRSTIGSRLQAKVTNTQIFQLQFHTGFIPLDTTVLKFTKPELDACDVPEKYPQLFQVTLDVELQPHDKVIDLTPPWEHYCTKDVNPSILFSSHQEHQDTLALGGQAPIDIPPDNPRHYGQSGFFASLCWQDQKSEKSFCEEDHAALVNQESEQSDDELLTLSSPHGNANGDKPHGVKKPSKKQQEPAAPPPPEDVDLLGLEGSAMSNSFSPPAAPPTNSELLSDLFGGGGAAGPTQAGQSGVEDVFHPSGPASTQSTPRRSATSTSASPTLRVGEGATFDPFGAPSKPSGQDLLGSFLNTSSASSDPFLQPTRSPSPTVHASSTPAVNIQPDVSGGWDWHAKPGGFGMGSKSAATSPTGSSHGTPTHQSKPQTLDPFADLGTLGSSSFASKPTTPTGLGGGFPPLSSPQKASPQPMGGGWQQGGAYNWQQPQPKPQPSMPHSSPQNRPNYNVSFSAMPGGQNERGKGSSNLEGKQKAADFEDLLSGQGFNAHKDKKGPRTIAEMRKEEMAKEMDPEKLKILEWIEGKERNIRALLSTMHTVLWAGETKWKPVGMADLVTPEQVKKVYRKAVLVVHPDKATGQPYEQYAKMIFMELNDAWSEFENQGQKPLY

T4: GFP-GAK (UniProt O14976)
T4 sequence: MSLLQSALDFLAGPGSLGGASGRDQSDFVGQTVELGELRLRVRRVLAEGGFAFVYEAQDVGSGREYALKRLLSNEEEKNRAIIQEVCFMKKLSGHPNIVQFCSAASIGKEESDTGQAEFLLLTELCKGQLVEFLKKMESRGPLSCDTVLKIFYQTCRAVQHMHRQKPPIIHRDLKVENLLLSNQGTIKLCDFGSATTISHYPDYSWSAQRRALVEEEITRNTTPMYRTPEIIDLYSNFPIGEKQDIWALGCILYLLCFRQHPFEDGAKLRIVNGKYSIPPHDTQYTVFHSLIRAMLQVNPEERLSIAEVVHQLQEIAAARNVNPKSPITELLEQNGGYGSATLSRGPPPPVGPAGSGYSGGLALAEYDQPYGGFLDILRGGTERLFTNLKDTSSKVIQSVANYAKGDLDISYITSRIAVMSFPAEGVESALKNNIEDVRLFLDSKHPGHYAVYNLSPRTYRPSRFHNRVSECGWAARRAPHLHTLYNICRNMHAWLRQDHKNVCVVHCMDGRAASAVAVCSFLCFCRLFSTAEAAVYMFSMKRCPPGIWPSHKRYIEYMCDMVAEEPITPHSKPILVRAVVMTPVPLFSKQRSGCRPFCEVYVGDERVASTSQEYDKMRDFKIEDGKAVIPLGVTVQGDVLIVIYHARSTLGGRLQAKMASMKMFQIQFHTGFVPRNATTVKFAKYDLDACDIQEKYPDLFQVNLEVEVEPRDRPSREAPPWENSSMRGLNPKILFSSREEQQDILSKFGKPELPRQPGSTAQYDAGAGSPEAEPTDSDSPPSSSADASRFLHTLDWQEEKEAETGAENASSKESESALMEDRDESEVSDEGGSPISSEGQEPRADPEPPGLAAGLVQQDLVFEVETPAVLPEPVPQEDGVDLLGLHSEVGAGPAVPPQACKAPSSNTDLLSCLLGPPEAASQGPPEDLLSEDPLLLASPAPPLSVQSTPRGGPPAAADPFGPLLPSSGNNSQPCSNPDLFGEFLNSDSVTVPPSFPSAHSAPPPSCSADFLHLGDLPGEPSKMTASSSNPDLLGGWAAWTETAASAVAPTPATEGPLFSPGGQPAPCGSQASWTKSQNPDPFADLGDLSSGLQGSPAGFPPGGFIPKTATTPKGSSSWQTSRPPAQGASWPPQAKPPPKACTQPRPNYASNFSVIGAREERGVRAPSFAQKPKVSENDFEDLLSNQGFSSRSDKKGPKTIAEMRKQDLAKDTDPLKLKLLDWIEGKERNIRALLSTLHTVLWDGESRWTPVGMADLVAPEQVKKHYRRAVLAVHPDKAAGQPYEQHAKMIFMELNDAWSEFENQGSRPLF


Tests used:
Assay in all cases: co-IP
[1] = biological target: T1, R857G Auxilin, endogenous, brain of homozygous R857G knockin mice (mouse (endogenous in brain))
[2] = biological target: T2, Auxilin, endogenous, brain of WT mice (mouse (endogenous in brain))
[3] = biological target: T3, GFP-Auxilin (wild type, human) (human)
GFP-GAK = biological target: T4, GFP-GAK

Row | binding [1] | binding [2] | binding [3] | binding (GFP-GAK) | Binder
1 | binds | binds |  |  | AP180, endogenous in mouse brain (protein, UniProt Q61548 1-901) MSGQTLTDRIAAAQYSVTGSAVARAVCKATTHEVMGPKKKHLDYLIQATNETNVNIPQMADTLFERATNSSWVVVFKALVTTHHLMVHGNERFIQYLASRNTLFNLSNFLDKSGSHGYDMSTFIRRYSRYLNEKAFSYRQMAFDFARVKKGADGVMRTMVPEKLLKSMPILQGQIDALLEFDVHPNELTNGVINAAFMLLFKDLIKLFACYNDGVINLLEKFFEMKKGQCKDALEIYKRFLTRMTRVSEFLKVAEQVGIDKGDIPDLTQAPSSLMETLEQHLNTLEGKKPGNNEGSGAPSPLSKSSPATTVTSPNSTPAKTIDTSPPVDIFATASAAAPVSSAKPSSDLLDLQPDFSGAAAGAAAPVVPPSGGATAWGDLLGEDSLAALSSVPCEAPISDPFAPEPSPPTTTTEPASASASTTTAVTAVTTEVDLFGDAFAASPGEAPAASEGATAPATPAPVAAALDACSGNDPFAPSEGSAEAAPELDLFAMKPPETSAPVVTPTASTAPPVPATAPSPAPTAVAATAATTTAAAAATTTATTSAAAATTAAAPPALDIFGDLFDSAPEVAAAPKPDAAPSIDLFGTDAFSSPPRGASPVPESSLTADLLSVDAFAAPSPASTASPAKAESSGVIDLFGDAFGSGASETQPAPQAVSSSSASADLLAGFGGSFMAPSTTPVTPAQNNLLQPSFEAAFGTTPSTSSSSSFDPSVFDGLGDLLMPTMAPSGQPAPVSMVPPSPAMAASKGLGSDLDSSLASLVGNLGISGTTSKKGDLQWNAGEKKLTGGANWQPKVTPATWSAGVPPQGTVPPTSSVPPGAGAPSVGQPGAGFGMPPSGTGMTMMSQQPVMFAQPMMRPPFGAAAVPGTQLSPSPTPATQSPKKPPAKDPLADLNIKDFL
2 |  |  | no binding | no binding | GGA1, endogenous in HEK293FT (protein, UniProt Q9UJY5 1-639) MEPAMEPETLEARINRATNPLNKELDWASINGFCEQLNEDFEGPPLATRLLAHKIQSPQEWEAIQALTVLETCMKSCGKRFHDEVGKFRFLNELIKVVSPKYLGSRTSEKVKNKILELLYSWTVGLPEEVKIAEAYQMLKKQGIVKSDPKLPDDTTFPLPPPRPKNVIFEDEEKSKMLARLLKSSHPEDLRAANKLIKEMVQEDQKRMEKISKRVNAIEEVNNNVKLLTEMVMSHSQGGAAAGSSEDLMKELYQRCERMRPTLFRLASDTEDNDEALAEILQANDNLTQVINLYKQLVRGEEVNGDATAGSIPGSTSALLDLSGLDLPPAGTTYPAMPTRPGEQASPEQPSASVSLLDDELMSLGLSDPTPPSGPSLDGTGWNSFQSSDATEPPAPALAQAPSMESRPPAQTSLPASSGLDDLDLLGKTLLQQSLPPESQQVRWEKQQPTPRLTLRDLQNKSSSCSSPSSSATSLLHTVSPEPPRPPQQPVPTELSLASITVPLESIKPSNILPVTVYDQHGFRILFHFARDPLPGRSDVLVVVVSMLSTAPQPIRNIVFQSAVPKVMKVKLQPPSGTELPAFNPIVHPSAITQVLLLANPQKEKVRLRYKLTFTMGDQTYNEMGDVDQFPPPETWGSL
